PubChem BioAssay AID504793 | Drosophila RNAi Screening Center | 2011
In all, the deposit lists about 23,000 reagents; below is an unselected part of those with a known target gene and a result. Of all reagents, 62 (0.27%) are marked active. 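Calls come from follow-up tests whose scores are not deposited, so confirmed genes may have low counts here; counts are not normalised per plate.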 Raw values vary from plate to plate and are shown uncorrected. Reagents against one gene are numbered here. Names joined by + are all predicted targets of the reagent.

Aim: 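Genes required for cells to halt at G2/M after double-strand DNA breaks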 (primary screen)
Cells: Drosophila S2R+ cells
Reagent: long dsRNA against Drosophila genes, about 0.25 µg dsRNA per well
Timing: 4 days of dsRNA, then 4 hours of drug before read-out
Challenge: doxorubicin 0.5 µM for 4 hours to cause double-strand breaks, in cells also given a low, harmless dose of dsRNA against nbs to sensitise the assay
Measured: 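Per-well count of mitotic cells stained for phospho-histone H3 after doxorubicin exposure, used as mitotic index; counts are raw and not normalised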
Scale: mitotic cells: higher = more cells in mitosis, weaker G2 arrest
Call rule: 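Genes are called active only when high mitotic counts were reproduced with independent dsRNAs and mitosis was checked for delay without damage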
Calls: active = confirmed in follow-up tests; inactive = not confirmed

no.	Target gene	reagent no.	mitotic cells, replicate 1	mitotic cells, replicate 2	call
1	cu	1	4		inactive
2	cu	2	5		inactive
3	Sln	1	3		inactive
4	Sln	2	7		inactive
5	Dad1	1	8		inactive
6	CG31743 + CG34313	1	5		inactive
7	CG31743 + CG34313	2	3		inactive
8	stg	1	9		inactive
9	stg	2	9		inactive
10	stg	3	2		inactive
11	Tm2	1	3		inactive
12	Tm2	2	7		inactive
13	CG13995	1	7	24	inactive
14	CG13995	2	5		inactive
15	CG13995	3	11		inactive
16	CG13995	4	3		inactive
17	Ipk2	1	4		inactive
18	Ipk2	2	7		inactive
19	Sting	1	8		inactive
20	Sting	2	5		inactive
21	Dim1	1	6		inactive
22	CG17207	1	7		inactive
23	CG7296	1	11	11	inactive
24	CG7296	2	11		inactive
25	CG7296	3	6		inactive
26	Cpr65Ax2 + Cpr65Ax1	1	6		inactive
27	Cpr65Ax2 + Cpr65Ax1	2	4		inactive
28	EMC2B	1	7		inactive
29	eEFSec	1	2		inactive
30	jet	1	2		inactive
31	jet	2	7		inactive
32	Oatp58Db	1	5		inactive
33	Oatp58Db	2	4		inactive
34	Prosalpha4T2	1	2		inactive
35	Prosalpha4T2	2	9		inactive
36	Cul2	1	16		inactive
37	PGRP-LB	1	4		inactive
38	Vajk4	1	5		inactive
39	Vajk4	2	4		inactive
40	Vajk4	3	6		inactive
41	wfs1	1	6		inactive
42	Sp212	1	6		inactive
43	Sp212	2	4		inactive
44	CG13193	1	3		inactive
45	cpx	1	8		inactive
46	CG12693	1	11		inactive
47	Cyp4ac3	1	5		inactive
48	Lsp1alpha	1	10		inactive
49	Lsp1alpha	2	3		inactive
50	Atg4b	1	6		inactive
51	Atg4b	2	1		inactive
52	CG3604	1	6		inactive
53	CG14421	1	18		inactive
54	CG14421	2	8		inactive
55	CG15528	1	6		inactive
56	RabX2	1	10		inactive
57	CG15449	1	6		inactive
58	olf413	1	17		inactive
59	olf413	2	6	11	inactive
60	olf413	3	5		inactive
61	olf413	4	8		inactive
62	Fam92	1	3		inactive
63	Fam92	2	4		inactive
64	Tak1	1	3		inactive
65	Tak1	2	9		inactive
66	Tak1	3	2		inactive
67	CG13460	1	3		inactive
68	CG10051	1	4		inactive
69	stc	1	7		inactive
70	bic	1	9		inactive
71	bic	2	1		inactive
72	Karl	1	7		inactive
73	Nab2	1	12		inactive
74	Nab2	2	4		inactive
75	CG4752	1	3		inactive
76	CG4752	2	7		inactive
77	Nubp1	1	2		inactive
78	CG17134	1	7		inactive
79	CG30344	1	7		inactive
80	CG30344	2	6		inactive
81	CG30460	1	2		inactive
82	CG30460	2	14		inactive
83	CG14187	1	5		inactive
84	CG14187	2	8		inactive
85	Cyp4ac2	1	4		inactive
86	adp	1	2		inactive
87	Alg-2	1	1		inactive
88	CG14417	1	10		inactive
89	Yp1	1	8		inactive
90	Yp1	2			inactive
91	cn	1	7		inactive
92	Ip259	1	11		inactive
93	CG4229	1	5		inactive
94	CG5888	1	8		inactive
95	CG5888	2	7		inactive
96	EbpIII	1	8		inactive
97	Rlip	1	4		inactive
98	CG31156	1	7		inactive
99	CG31156	2	12		inactive
100	cni	1	3		inactive
101	CG18568	1	4		inactive
102	CG18568	2	10		inactive
103	GluRS-m	1	5		inactive
104	GluRS-m	2	9		inactive
105	Gadd45	1	1		inactive
106	Ir48c	1	12		inactive
107	PIG-Q	1	12		inactive
108	St3	1	4		inactive
109	CG9503	1	11		inactive
110	CG9503	2	3		inactive
